Active and inactive are the calls of the source. The rule behind the calls is not given here.

1 molecule from PubChem BioAssay AID732 (Emory University Molecular Libraries Screening Center, 2007) can be followed below.

This experiment concerns in vivo angiogenesis, blood vessel count. The experiment can be described thus: reduction of blood vessel formation in vivo – HTS, in vivo study (AID 732).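 Note: zebrafish embryos dosed at one day post fertilization; 0% = reference inhibitor and 100% = plate mean.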 Conditions: active compounds read low;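 tested at 30 µM in the well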.

Regarding `CN1C2CCC1CC(OC(=O)C(O)c1ccccc1)C2` (stereo unspecified), the vessel count % control is inactive: 108%.
